Earlier results in patent publication US7196195B2 (Richter Gedeon Vegyészeti Gyár RT., priority 2000, dated 2007).

Compound: Clc1ccc2c(c1)CCc1cccnc1C2=C1CCNCC1 [desloratadine, 8-chloro-6,11-dihydro-11-(4-piperidilydene)-5H-benzo[5,6]cyclohepta[1,2-b]pyridine]
- antihistaminic activity lasts for (duration of antihistaminic activity): 24 h
- times more active orally than loratidine (oral, relative to loratadine): 2.5–4 times
